System: WT and ROCK1^−/− mice
Test: Serial doxorubicin administration, DOX-induced CTX in WT and ROCK1−/− mice
Protocol: FIG. 1A. Schematic diagram representing serial doxorubicin administration protocol. WT and ROCK1^−/− mice received three serial injections weekly of normal saline (NS) or doxorubicin (DOX) (8 mg/kg). […]
The generation of ROCK1 deficient mice have been previously reported. […] To assess if a deficiency of ROCK1 protects the mice from DOX induced CTX, control (WT) and ROCK1^−/− mice were injected with 8 mg/kg of DOX or normal saline (NS) once weekly for 3 consecutive weeks, for a cumulative dose of 24 mg/kg (FIG. 1A). This treatment is based on the previously described approach, which causes progressive cardiac dysfunction within three weeks after the initial injection, a scenario that mimics early-onset of DOX-induced CTX in humans.
To elucidate the role of ROCK1 in DOX induced CTX, ROCK1^−/− mice were treated with DOX in parallel to the WT mice.
During autophagy, the cytosolic form of microtubule-associated protein 1 light chain 3 (LC3-I) is conjugated to phosphatidylethanolamine to form LC3-II, which is recruited to autophagosomal membranes.

COc1cccc2c1C(=O)c1c(O)c3c(c(O)c1C2=O)C[C@@](O)(C(=O)CO)C[C@@H]3O[C@H]1C[C@H](N)[C@H](O)[C@H](C)O1 [DOX, doxorubicin]
levels of Beclin 1 and AMPK phosphorylation (WT hearts with LC3-II accumulation): not accompanied by increased levels | focal adhesion kinase (FAK) phosphorylation (WT mice, ventricular homogenates): decreased | ROCK1 expression (WT mice, ventricular homogenates, day 21): increased

— patent US20210338699A1 (priority 2018, published 2021)
